Measurements taken from publication doi:10.1101/2023.04.13.536796.
Results are given in words; binding and its absence hold for the method and conditions named. Binding seen in cells or lysates may run through a third protein. Some results given as binding are weak or reduced against the parent protein; the word gives no strength.

Assays:
Experiment in all cases: co-IP
Conditions in all cases: remark: other sources report otherwise
[1] = target: T1, HRD1 (HMG-CoA reductase degradation 1), endogenous (human (endogenous in HEK293T)), Q86TM6
[2] = target: T1, HRD1 (HMG-CoA reductase degradation 1), …; remark: listed apart in the source
[3] = target: T1, HRD1 (HMG-CoA reductase degradation 1), …; remark: listed apart in the source

Measured: binding

B1: HERP1 (Homocysteine-induced ER protein 1), endogenous, Q15011 1-391 (protein)
chain: MESETEPEPVTLLVKSPNQRHRDLELSGDRGWSVGHLKAHLSRVYPERPRPEDQRLIYSGKLLLDHQCLRDLLPKQEKRHVLHLVCNVKSPSKMPEINAKVAESTEEPAGSNRGQYPEDSSSDGLRQREVLRNLSSPGWENISRPEAAQQAFQGLGPGFSGYTPYGWLQLSWFQQIYARQYYMQYLAATAASGAFVPPPSAQEIPVVSAPAPAPIHNQFPAENQPANQNAAPQVVVNPGANQNLRMNAQGGPIVEEDDEINRDWLDWTYSAATFSVFLSILYFYSSLSRFLMVMGATVVMYLHHVGWFPFRPRPVQNFPNDGPPPDVVNQDPNNNLQEGTDPETEDPNHLPPDRDVLDGEQTSPSFMSTAWLVFKTFFASLLPEGPPAIAN
binds: all assays above
